Test results as given in the supplement of paper PMC10849652.
Some of the results follow.

The chains behind the UniProt entries cited, without tags or fusion partners. Where a name states a change or a piece, a line headed by the entry shows the natural chain unless it says otherwise.
UniProt O43819: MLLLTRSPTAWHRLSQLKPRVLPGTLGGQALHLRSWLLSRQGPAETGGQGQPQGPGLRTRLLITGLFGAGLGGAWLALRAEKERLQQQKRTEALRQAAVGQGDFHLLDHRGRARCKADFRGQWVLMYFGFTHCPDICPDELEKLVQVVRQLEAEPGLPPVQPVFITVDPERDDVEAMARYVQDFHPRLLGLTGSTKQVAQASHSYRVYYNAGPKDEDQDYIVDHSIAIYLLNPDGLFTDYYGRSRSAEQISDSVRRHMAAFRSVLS
UniProt Q9BY42: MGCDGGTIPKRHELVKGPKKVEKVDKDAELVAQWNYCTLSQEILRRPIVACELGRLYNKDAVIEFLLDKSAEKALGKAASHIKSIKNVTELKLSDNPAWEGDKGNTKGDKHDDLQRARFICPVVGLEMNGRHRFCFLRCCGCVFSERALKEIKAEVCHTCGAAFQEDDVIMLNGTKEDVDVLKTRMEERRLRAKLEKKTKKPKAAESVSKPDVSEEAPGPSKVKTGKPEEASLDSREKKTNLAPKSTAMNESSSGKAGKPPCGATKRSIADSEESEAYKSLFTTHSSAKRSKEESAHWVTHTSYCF
UniProt Q9UBE0: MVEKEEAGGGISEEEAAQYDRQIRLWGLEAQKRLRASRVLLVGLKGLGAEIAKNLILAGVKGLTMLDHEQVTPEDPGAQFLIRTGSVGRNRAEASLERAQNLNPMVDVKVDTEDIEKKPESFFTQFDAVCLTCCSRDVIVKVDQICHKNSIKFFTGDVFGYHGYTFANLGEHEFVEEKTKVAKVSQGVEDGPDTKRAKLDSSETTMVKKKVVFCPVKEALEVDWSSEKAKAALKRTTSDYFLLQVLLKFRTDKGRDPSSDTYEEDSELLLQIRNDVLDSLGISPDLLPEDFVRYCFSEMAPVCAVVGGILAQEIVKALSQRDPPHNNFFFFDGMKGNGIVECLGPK
UniProt Q9NTJ5: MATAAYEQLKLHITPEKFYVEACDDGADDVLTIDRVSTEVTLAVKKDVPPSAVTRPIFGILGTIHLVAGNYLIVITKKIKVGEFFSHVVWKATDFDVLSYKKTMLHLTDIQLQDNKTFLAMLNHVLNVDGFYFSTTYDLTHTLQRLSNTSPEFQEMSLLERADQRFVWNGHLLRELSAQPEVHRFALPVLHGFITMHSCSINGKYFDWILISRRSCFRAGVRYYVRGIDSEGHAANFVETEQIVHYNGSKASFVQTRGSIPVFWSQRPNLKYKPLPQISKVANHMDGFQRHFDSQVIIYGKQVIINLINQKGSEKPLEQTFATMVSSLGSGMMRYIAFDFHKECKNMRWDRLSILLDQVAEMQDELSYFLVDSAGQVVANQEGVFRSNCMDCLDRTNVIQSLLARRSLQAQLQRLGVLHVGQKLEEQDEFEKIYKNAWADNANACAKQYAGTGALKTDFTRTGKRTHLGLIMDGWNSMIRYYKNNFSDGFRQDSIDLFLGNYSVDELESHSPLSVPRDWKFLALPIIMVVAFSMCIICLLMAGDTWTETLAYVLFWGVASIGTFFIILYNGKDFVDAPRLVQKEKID
UniProt Q8IZE3: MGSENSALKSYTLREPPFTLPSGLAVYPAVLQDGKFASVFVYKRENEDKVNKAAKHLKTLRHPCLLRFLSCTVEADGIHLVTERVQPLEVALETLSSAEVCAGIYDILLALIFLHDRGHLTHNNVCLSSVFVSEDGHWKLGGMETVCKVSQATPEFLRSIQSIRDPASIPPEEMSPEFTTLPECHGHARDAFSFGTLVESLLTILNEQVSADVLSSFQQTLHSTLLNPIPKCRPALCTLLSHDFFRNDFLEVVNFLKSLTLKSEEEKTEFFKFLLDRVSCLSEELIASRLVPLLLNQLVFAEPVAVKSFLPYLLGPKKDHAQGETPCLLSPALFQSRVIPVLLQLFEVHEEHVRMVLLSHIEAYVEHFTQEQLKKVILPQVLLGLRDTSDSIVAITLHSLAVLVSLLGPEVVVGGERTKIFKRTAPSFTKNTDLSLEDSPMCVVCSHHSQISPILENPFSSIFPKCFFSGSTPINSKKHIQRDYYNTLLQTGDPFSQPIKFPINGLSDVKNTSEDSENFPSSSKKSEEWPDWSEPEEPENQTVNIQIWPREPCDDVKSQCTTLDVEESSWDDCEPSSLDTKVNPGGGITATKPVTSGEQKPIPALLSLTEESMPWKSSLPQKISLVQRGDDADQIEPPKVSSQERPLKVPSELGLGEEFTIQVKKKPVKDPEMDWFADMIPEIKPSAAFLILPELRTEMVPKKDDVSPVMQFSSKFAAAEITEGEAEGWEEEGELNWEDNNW
UniProt O95197: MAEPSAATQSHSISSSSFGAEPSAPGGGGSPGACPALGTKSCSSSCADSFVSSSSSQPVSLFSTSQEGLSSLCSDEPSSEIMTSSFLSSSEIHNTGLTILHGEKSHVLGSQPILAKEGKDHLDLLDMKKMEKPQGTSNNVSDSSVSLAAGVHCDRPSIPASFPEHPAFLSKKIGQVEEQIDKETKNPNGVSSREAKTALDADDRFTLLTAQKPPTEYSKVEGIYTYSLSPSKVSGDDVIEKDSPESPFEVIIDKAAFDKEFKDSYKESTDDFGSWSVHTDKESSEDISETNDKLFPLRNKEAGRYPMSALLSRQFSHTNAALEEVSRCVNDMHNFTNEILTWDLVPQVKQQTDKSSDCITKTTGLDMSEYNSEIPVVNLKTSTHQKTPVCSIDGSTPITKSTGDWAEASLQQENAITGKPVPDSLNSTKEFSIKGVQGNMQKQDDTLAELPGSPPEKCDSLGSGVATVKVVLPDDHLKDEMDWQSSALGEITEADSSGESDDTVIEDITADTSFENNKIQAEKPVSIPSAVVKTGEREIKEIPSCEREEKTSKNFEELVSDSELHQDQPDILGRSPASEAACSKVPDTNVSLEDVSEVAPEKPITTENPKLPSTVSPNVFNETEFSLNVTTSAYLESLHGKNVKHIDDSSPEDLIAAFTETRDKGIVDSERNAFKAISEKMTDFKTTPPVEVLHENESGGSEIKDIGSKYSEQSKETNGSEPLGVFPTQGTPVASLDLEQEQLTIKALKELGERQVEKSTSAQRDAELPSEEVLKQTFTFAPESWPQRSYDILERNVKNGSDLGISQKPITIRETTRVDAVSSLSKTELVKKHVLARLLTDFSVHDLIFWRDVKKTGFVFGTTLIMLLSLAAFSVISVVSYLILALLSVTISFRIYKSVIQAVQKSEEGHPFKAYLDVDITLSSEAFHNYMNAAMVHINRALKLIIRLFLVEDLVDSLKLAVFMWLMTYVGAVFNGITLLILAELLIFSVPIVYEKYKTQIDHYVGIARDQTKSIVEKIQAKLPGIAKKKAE
UniProt Q01196, whole entry, looked up: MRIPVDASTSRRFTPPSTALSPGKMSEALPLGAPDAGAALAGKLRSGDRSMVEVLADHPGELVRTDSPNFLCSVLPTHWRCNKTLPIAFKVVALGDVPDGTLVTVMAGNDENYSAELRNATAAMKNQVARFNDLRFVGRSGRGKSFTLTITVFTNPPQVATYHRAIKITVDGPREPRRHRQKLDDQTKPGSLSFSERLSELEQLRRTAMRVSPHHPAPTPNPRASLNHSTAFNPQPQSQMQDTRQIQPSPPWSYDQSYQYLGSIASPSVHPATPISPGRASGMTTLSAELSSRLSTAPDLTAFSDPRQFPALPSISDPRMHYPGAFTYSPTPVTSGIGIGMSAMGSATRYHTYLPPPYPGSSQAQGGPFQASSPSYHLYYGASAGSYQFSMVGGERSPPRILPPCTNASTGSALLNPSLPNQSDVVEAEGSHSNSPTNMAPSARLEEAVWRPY
UniProt Q6UVJ0: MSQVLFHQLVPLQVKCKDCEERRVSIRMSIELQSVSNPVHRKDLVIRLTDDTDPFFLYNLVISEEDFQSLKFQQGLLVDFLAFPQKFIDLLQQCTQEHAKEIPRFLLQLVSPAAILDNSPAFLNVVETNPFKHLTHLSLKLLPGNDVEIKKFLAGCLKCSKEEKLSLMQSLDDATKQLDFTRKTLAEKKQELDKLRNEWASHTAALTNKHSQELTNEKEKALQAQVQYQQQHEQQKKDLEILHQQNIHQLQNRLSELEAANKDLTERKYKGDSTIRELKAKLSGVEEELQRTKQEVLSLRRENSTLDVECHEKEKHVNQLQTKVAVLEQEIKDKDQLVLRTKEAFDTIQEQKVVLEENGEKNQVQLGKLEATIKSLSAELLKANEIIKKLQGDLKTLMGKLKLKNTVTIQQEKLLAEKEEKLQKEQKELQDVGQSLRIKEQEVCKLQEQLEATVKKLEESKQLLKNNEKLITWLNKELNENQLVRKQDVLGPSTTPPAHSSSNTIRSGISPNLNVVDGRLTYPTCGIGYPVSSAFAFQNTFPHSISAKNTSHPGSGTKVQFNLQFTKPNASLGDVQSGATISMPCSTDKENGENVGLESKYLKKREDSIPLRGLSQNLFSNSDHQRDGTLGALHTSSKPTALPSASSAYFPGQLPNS
UniProt P82979: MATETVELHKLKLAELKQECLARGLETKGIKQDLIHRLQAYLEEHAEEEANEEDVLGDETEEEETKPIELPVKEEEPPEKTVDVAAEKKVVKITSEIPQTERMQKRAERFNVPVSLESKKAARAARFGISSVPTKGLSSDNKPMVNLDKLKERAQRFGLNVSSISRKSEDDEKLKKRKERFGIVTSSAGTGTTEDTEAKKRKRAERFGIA
UniProt Q9Y6U3: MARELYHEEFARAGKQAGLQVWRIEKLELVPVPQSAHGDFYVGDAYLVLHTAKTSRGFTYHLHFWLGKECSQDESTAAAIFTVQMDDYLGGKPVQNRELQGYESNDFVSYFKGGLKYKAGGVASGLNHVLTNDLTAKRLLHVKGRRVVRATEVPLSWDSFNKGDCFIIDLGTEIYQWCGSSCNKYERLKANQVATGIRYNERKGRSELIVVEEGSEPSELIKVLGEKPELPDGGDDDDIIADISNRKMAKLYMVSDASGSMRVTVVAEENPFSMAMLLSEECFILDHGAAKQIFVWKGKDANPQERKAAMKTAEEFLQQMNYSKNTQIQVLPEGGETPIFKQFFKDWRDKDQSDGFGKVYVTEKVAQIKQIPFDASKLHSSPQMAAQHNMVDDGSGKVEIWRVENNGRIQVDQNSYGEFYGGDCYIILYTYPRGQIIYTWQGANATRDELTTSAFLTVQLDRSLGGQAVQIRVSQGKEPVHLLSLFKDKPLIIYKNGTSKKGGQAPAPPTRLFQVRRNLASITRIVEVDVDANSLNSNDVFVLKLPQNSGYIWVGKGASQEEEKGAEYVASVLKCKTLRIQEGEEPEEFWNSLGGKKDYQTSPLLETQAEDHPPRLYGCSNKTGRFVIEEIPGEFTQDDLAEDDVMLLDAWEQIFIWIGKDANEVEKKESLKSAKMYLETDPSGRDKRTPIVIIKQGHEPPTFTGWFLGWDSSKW
UniProt Q6NW29: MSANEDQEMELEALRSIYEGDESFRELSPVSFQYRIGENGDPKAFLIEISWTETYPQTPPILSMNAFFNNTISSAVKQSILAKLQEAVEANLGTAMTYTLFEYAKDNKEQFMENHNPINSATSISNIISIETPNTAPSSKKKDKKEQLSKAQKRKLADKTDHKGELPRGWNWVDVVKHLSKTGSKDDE
UniProt Q9UHR5: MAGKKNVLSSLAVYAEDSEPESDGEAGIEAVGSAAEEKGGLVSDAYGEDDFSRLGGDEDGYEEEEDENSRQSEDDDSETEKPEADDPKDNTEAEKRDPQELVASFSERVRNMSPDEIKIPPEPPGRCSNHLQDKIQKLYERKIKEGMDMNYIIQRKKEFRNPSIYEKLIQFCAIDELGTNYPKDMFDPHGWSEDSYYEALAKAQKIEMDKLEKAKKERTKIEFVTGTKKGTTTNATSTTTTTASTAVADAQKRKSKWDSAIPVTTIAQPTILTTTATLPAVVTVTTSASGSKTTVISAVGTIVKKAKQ
UniProt Q96EU6: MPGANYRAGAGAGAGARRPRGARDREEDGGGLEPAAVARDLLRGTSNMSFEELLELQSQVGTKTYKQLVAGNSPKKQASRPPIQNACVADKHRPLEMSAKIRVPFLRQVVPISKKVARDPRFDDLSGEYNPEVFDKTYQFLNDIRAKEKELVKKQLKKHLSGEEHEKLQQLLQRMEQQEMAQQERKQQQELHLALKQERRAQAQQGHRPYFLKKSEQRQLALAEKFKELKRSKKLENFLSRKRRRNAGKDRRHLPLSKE
UniProt Q7L4I2: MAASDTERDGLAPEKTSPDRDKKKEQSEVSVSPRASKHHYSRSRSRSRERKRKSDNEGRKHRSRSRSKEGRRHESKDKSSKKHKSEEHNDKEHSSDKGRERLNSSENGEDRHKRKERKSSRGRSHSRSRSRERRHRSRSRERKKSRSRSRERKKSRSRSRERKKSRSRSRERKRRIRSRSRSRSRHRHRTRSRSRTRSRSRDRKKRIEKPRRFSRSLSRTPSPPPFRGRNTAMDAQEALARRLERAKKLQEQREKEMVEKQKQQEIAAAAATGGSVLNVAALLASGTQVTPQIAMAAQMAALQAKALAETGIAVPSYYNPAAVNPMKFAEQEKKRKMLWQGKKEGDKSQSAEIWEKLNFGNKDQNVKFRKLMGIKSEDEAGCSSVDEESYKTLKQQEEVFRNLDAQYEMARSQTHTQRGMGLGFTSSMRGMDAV

Legend:
Test in all cases: log2 fold change, soluble protein after heating vs DMSO (PISA); higher = thermal stabilisation; K562 cells, 10 uM, 30 min; active = over 0.2 and 3.5 SD of the protein, either way, in both replicates (recomputed)
[1] = compound: C#Cc1cccc(Nc2ncnc3cc(OCCOC)c(OCCOC)cc23)c1 [erlotinib]
How it was run: (§1)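 Values are thermal stability changes relative to control samples and are taken from duplicates. They are stated as log2 fold changes. Before quantification by TMTpro 16plex LC-MS/MS with equalised channel sums, K562 cells at 2×10^6 cells/mL were treated with 10 μM compound for 30 min, heated in aliquots for 3 min across 48°C-58°C, pooled, extracted in PBS with 0.5% NP-40 at 4°C, and centrifuged at 21,000xg for 90 min to give the soluble supernatant.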

[2] = compound: C/C(=N\NC(=O)C1=CC(=CC=C1)S(=O)(=O)N2CCOCC2)/C3=C(C=CC(=C3)Cl)O
How it was run: as §1

[3] = compound: C1=CC(=C(C=C1Cl)C2=NC3=NC=CN=C3C(=N2)NC4=CC=NC=C4)F
How it was run: as §1

[4] = compound: C1=CC(=CC=C1C2=NC3=C(N2)C=C(C=C3)C(=O)N)OC4=CC=C(C=C4)Cl
How it was run: as §1

[5] = compound: C1=CC2=C(C=CC(=C2)/C=C\3/C(=O)NC(=NCC4=CC=CS4)S3)N=C1
How it was run: as §1

[6] = compound: C1=CC2=NC=CN=C2C=C1/C=C/3\C(=O)NC(=O)S3
How it was run: as §1

[7] = compound: C1=CC=C(C=C1)C2=NC(=C(N2)C3=CC=NC=C3)C4=CC(=C(C=C4)Cl)O
How it was run: as §1

[8] = compound: C1=CC=C2C(=C1)C3=NNC4=CC=CC(=C43)C2=O
How it was run: as §1

[9] = compound: C1CCN(C1)C(=O)NC2=CC=CC(=C2)NC3=NC=C(C(=N3)NCCC4=CN=CN4)Br
How it was run: as §1

[10] = compound: C1CN(CCC1(CC2=CC=C(C=C2)Cl)N)C3=NC=NC4=C3C=CN4
How it was run: as §1

Measured: log2 fold change

SEC23A (UniProt Q15436)
inactive: [1] 0.026 | [2] 0.1 | [3] 0.022 | [4] -0.036 | [5] -0.024 | [6] 0.021 | [7] 0.005 | [8] -0.018 | [9] 0.019 | [10] -0.019

SCO2 (UniProt O43819)
inactive: [1] 0.092 | [2] 0.012 | [3] 0.055 | [4] 0.048 | [5] 0.243 | [6] -0.054 | [7] 0.017 | [8] 0.163 | [9] -0.042 | [10] 0.101

SART1 (UniProt O43290)
inactive: [1] -0.082 | [2] -0.161 | [3] -0.585 | [4] 0.021 | [5] -0.189 | [6] -0.006 | [7] -0.158 | [8] -0.047 | [9] -0.029 | [10] -0.114

SCARB1 isoform 2 (UniProt Q8WTV0)
inactive: [1] 0.028 | [2] 0.02 | [3] 0.036 | [4] 0.005 | [5] 0.016 | [6] 0.058 | [7] 0.056 | [8] 0.012 | [9] 0.009 | [10] 0.041

RTF2 (UniProt Q9BY42)
inactive: [1] 0.026 | [2] 0.063 | [3] 0.035 | [4] -0.049 | [5] -0.049 | [6] -0.023 | [7] -0.035 | [8] -0.02 | [9] -0.074 | [10] 0.045

SCARB2 (UniProt Q14108)
inactive: [1] 0.007 | [2] 0.064 | [3] -0.047 | [4] 0.052 | [5] -0.059 | [6] 0.053 | [7] 0.032 | [8] 0.033 | [9] 0.004 | [10] 0.018

SAE1 (UniProt Q9UBE0)
inactive: [1] -0.047 | [2] 0.04 | [3] 0.095 | [4] 0.017 | [5] -0.015 | [6] 0.037 | [7] -0.014 | [8] -0.021 | [9] 0.003 | [10] -0.014

SACM1L (UniProt Q9NTJ5)
inactive: [1] 0.005 | [2] 0.1 | [3] 0.109 | [4] -0.061 | [5] 0.039 | [6] -0.007 | [7] 0.077 | [8] 0.009 | [9] 0.001 | [10] 0.068

SCYL1 (UniProt Q96KG9)
inactive: [1] -0.016 | [2] 0.037 | [3] 0.048 | [4] 0.034 | [5] 0.001 | [6] 0.051 | [7] -0.011 | [8] -0.013 | [9] -0.024 | [10] 0.032

SDSL (UniProt Q96GA7)
inactive: [1] 0.016 | [2] 0.031 | [3] 0.054 | [4] 0.036 | [5] -0.06 | [6] 0.056 | [7] -0.052 | [8] -0.021 | [9] 0.018 | [10] 0.088

SCYL3 isoform 2 (UniProt Q8IZE3)
inactive: [1] 0.046 | [2] 0.055 | [3] 0.07 | [4] -0.05 | [5] 0.068 | [6] -0.024 | [7] 0.058 | [8] 0.014 | [9] 0.093 | [10] 0.123

SCFD1 (UniProt Q8WVM8)
inactive: [1] 0.046 | [2] 0.075 | [3] 0.055 | [4] -0.026 | [5] 0.064 | [6] 0.014 | [7] 0.045 | [8] 0.019 | [9] -0.022 | [10] -0.036

SAR1B (UniProt Q9Y6B6)
inactive: [1] -0.035 | [2] 0.009 | [3] 0.098 | [4] -0.011 | [5] 0.004 | [6] 0.005 | [7] -0.015 | [8] 0.018 | [9] -0.013 | [10] -0.005

RTN3 (UniProt O95197)
inactive: [1] -0.03 | [2] 0.015 | [3] -0.006 | [4] 0.005 | [5] -0.026 | [6] 0.019 | [7] -0.037 | [8] -0.009 | [9] -0.002 | [10] 0.039

RUNX1 isoform 8 (UniProt Q01196)
inactive: [1] 0.122 | [2] 0.081 | [3] -0.03 | [4] 0.048 | [5] -0.001 | [6] 0.032 | [7] 0.131 | [8] -0.033

SASS6 (UniProt Q6UVJ0)
inactive: [1] 0.034 | [2] -0.05 | [3] -0.06 | [4] -0.174 | [5] 0.082 | [6] -0.242 | [7] 0.075 | [8] 0.124 | [9] -0.068 | [10] 0.02

SARNP (UniProt P82979)
inactive: [1] 0.008 | [2] -0.149 | [3] -0.026 | [4] 0 | [5] -0.01 | [6] 0.014 | [7] -0.162 | [8] -0.093 | [9] 0.062 | [10] -0.006

SCAMP1 (UniProt O15126)
inactive: [1] 0.015 | [2] -0.04 | [3] 0.019 | [4] 0.037 | [5] -0.046 | [6] 0.025 | [7] 0.001 | [8] -0.032 | [9] 0.011 | [10] 0.057

SCIN (UniProt Q9Y6U3)
inactive: [1] 0.015 | [2] 0.056 | [3] 0.026 | [4] -0.052 | [5] 0.091 | [6] 0.042 | [7] 0.058 | [8] -0.073 | [9] -0.054 | [10] 0.063

RTF1 (UniProt Q92541)
inactive: [1] -0.053 | [2] 0.058 | [3] 0.066 | [4] 0.013 | [5] 0.041 | [6] 0.001 | [7] -0.038 | [8] 0.014 | [9] -0.015 | [10] 0.02

RWDD4 (UniProt Q6NW29)
inactive: [1] 0.006 | [2] 0.016 | [3] -0.027 | [4] -0.025 | [5] 0.095 | [6] 0.053 | [7] -0.129 | [8] 0.016 | [9] -0.019 | [10] -0.106

S100A6 (UniProt P06703)
inactive: [1] -0.064 | [2] 0.075 | [3] 0.085 | [4] 0.021 | [5] 0.049 | [6] 0.04 | [7] 0.03 | [8] 0 | [9] -0.042 | [10] -0.049

SAFB2 (UniProt Q14151)
inactive: [1] 0.015 | [2] -0.135 | [3] -0.294 | [4] 0.071 | [5] -0.148 | [6] 0.049 | [7] 0.014 | [8] -0.015 | [9] -0.037 | [10] -0.041

RTN3 isoform 5 (UniProt O95197)
inactive: [1] -0.096 | [2] 0.022 | [3] 0.059 | [4] 0.09 | [5] 0.132 | [6] -0.002 | [7] 0.124 | [8] -0.045 | [9] -0.14 | [10] 0.082

SCAP (UniProt Q12770)
inactive: [1] -0.001 | [2] -0.005 | [3] 0.033 | [4] -0.006 | [5] -0.037 | [6] 0.041 | [7] 0.009 | [8] -0.04 | [9] 0.025 | [10] -0.003

SAP30BP (UniProt Q9UHR5)
inactive: [1] 0.065 | [2] 0.006 | [3] 0.023 | [4] -0.026 | [5] -0.019 | [6] 0.143 | [7] -0.037 | [8] -0.023 | [9] -0.025 | [10] -0.004

RRP36 (UniProt Q96EU6)
inactive: [1] -0.192 | [2] -0.147 | [3] -0.586 | [4] -0.005 | [5] -0.133 | [6] -0.06 | [7] 0.019 | [8] 0.012 | [9] 0.045 | [10] -0.146

RSRC2 (UniProt Q7L4I2)
inactive: [1] 0.023 | [2] -0.01 | [3] -0.009 | [4] -0.012 | [5] -0.05 | [6] 0.018 | [7] 0.019 | [8] -0.032 | [9] 0 | [10] 0.012

2 successive records already listed, quoted:
SCAP (UniProt Q12770)
inactive: [1] -0.001 | [2] -0.005 | [3] 0.033 | [4] -0.006 | [5] -0.037 | [6] 0.041 | [7] 0.009 | [8] -0.04 | [9] 0.025 | [10] -0.003

SAP30BP (UniProt Q9UHR5)
inactive: [1] 0.065 | [2] 0.006 | [3] 0.023 | [4] -0.026 | [5] -0.019 | [6] 0.143 | [7] -0.037 | [8] -0.023 | [9] -0.025 | [10] -0.004

Additional entries

SEC24D isoform 2 (UniProt O94855)
inactive: [1] -0.018 | [2] 0.049 | [3] 0.074 | [4] 0.006 | [5] -0.005 | [6] 0.043 | [7] -0.036 | [8] 0.034 | [9] 0.006 | [10] 0.011

RSBN1L (UniProt Q6PCB5)
inactive: [1] -0.114 | [2] -0.297 | [3] -0.301 | [4] 0.02 | [5] -0.053 | [6] -0.036 | [7] -0.04 | [8] -0.074 | [9] 0.05 | [10] -0.037
